# Measurements reported in PubChem BioAssay AID1259424 (University of Nebraska Medical Center, 2018).
# Assay: 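Find knockdowns that reproduce the expression shifts seen after KSR1 loss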 (primary screen)
# Cell system: human HCT116 colon cancer cells
# Knock-down reagent: siRNA pool against human genes, 50 nM
# Measurement: 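Six signature mRNAs by branched-DNA multiplex assay, scaled to two housekeeping genes and non-targeting median, log2; matched to mean KSR1 knockdown profile by Pearson correlation and euclidean distance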
# Direction: mean correlation with KSR1 profile and KSR1 correlation: higher = expression change more like KSR1 knockdown; mean distance from KSR1 profile: higher = expression change less like KSR1 knockdown
# Shown is an unselected part of about 14,000 reagents tested. 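Higher correlation or smaller distance means closer resemblance to KSR1 loss; control wells, including KSR1 knockdowns, recur on many plates.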 The record does not give: the time to read-out.
gene knocked down,mean correlation with KSR1 profile,mean distance from KSR1 profile,"KSR1 correlation, replicate 1","KSR1 correlation, replicate 2","KSR1 correlation, replicate 3"
MAP3K4,0.529,1.74,0.307,0.854,0.543
MLXIP,-0.756,1.88,-0.277,-0.518,-0.68
HMCN1,-0.135,3.63,-0.172,-0.138,-0.117
CPZ,-0.583,3.05,-0.7,-0.555,-0.492
ARHGEF15,0.427,1.11,0.245,0.431,0.598
C2CD2,0.25,1.4,0.392,0.163,0.0996
FOXP1,0.38,3.08,0.375,0.395,0.375
ATXN7L3,0.145,3.2,0.133,0.194,0.321
TRIM32,0.0667,2.47,0.158,-0.0634,-0.0586
CXCL13,0.883,1.08,0.901,0.738,0.811
ARMC7,-0.59,2.33,-0.709,-0.592,-0.449
PBOV1,0.0417,3.75,0.0641,0.039,-0.00742
EVPL,0.325,2,0.314,0.151,0.354
TRAF3IP2,0.186,1.68,0.421,0.34,-0.0549
KDM6A,-0.466,1.5,-0.0984,-0.584,-0.448
KRTAP4-9,0.0521,2.56,0.0897,0.0154,-0.0508
OR2T1,0.833,1.53,0.881,0.886,0.715
B4GALT2,-0.106,3.4,0.0614,-0.087,-0.244
RPS12,-0.186,2.86,-0.479,-0.217,0.0146
PIMREG,0.0658,1.42,0.133,-0.326,0.0186
FAM111A,-0.72,3.04,-0.723,-0.621,-0.729
ITIH4,-0.146,1.79,-0.529,0.181,-0.206
STRIP1,0.265,3.12,0.25,0.102,0.0927
FGFR1,0.837,3.8,0.652,0.692,0.897
SMARCD2,-0.299,2.18,-0.359,0.0279,-0.105
PSKH1,0.336,2.38,0.531,0.399,0.138
SPINK7,0.795,4.34,0.756,0.631,0.604
KIF26A,0.465,2.1,0.46,0.47,0.311
PDS5A,0.192,1.51,0.013,0.0911,0.27
AKAP19,0.706,3.97,0.636,0.717,0.417
SI,-0.237,1.89,-0.6,-0.0525,-0.0109
MED12,-0.0423,3.1,0.171,-0.0801,-0.234
ADCY1,-0.124,2.05,-0.0947,-0.194,-0.337
SLC25A23,-0.809,2.57,-0.89,-0.869,-0.867
DHRS7,-0.402,2.26,-0.387,-0.648,-0.336
ZNF607,0.492,1.28,0.403,0.467,0.268
CTSE,0.38,2.38,0.409,0.199,0.604
EGR1,0.175,1.4,0.0134,0.499,-0.159
RNASET2,0.56,1.53,0.388,0.63,0.533
LINC00839,-0.0538,3.23,-0.0771,-0.0608,-0.27
GPR84,0.397,1.93,0.0544,0.364,0.528
CD83,-0.0391,1.58,-0.0786,-0.188,-0.0979
TXN,-0.768,2.38,-0.794,-0.639,-0.842
RTN4R,-0.511,2.71,-0.566,-0.325,-0.746
AGGF1,0.304,2.03,0.615,0.386,-0.125
XAF1,0.0333,1.61,0.151,0.449,-0.278
CKM,-0.372,3.07,-0.33,-0.564,-0.441
SERPINB4,-0.0521,2.26,-0.104,0.295,-0.248
MAN1A2,-0.703,1.94,-0.697,-0.345,-0.318
TRUB2,0.757,2.23,0.78,0.68,0.692

A stretch taken from the entries so far:
gene knocked down,mean correlation with KSR1 profile,mean distance from KSR1 profile,"KSR1 correlation, replicate 1","KSR1 correlation, replicate 2","KSR1 correlation, replicate 3"
SI,-0.237,1.89,-0.6,-0.0525,-0.0109
MED12,-0.0423,3.1,0.171,-0.0801,-0.234
ADCY1,-0.124,2.05,-0.0947,-0.194,-0.337
